Results from article PMC11275985.
These are yes or no findings as the source states them, for the method shown. For part of these data: In cells and extracts the contact can be indirect. Some entries that bind do so weakly or less than the wild type.

Chains of the proteins cited; added tags and fusions are not shown.
UniProt O00327: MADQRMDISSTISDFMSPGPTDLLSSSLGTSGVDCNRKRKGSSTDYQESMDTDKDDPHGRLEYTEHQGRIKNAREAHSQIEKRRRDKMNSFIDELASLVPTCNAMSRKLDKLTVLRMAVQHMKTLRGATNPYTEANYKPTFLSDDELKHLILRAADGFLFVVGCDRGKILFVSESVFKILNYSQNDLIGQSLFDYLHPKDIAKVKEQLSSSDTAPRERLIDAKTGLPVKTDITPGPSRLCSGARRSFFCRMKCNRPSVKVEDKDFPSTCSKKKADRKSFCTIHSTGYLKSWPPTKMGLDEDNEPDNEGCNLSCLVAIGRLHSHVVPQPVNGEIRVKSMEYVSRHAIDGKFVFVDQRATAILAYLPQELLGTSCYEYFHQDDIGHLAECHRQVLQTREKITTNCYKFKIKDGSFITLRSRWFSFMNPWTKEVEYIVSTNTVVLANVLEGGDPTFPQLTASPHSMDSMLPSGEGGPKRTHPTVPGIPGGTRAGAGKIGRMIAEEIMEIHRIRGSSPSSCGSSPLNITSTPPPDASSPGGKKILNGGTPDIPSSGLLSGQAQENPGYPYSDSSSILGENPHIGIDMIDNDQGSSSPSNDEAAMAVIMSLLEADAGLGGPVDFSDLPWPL
UniProt Q99814: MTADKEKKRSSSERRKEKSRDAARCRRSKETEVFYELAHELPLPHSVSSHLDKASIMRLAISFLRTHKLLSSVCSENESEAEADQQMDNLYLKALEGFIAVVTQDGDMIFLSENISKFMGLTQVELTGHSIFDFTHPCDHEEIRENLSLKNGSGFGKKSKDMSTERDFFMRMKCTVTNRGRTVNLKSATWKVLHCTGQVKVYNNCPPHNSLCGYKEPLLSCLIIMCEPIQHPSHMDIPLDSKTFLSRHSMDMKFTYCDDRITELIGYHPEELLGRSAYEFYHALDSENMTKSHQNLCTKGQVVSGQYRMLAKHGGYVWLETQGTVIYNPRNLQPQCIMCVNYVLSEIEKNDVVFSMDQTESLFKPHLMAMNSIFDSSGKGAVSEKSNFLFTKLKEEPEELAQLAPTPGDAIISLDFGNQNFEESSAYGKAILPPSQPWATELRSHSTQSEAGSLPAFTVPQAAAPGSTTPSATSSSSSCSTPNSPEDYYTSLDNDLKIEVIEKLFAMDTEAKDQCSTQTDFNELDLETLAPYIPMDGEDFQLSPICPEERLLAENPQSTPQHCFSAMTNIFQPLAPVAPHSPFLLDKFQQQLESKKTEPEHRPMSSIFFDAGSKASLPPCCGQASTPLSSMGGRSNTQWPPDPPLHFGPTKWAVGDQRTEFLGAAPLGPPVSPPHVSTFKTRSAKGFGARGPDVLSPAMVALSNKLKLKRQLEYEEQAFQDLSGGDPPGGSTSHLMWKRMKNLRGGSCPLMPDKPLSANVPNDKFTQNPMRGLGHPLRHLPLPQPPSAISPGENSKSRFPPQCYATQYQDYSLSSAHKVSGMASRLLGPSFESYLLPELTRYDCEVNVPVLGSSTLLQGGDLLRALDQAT

Key:
[1] = molecular target: Full-length human BMAL1 with an N-terminal Strep tag (human) (UniProt O00327); test: mass photometry; purified co-expressed complex at low concentration (20 nM); 20 mM Tris-HCl pH 8.0, 100 mM KCl, 0.5 mM TCEP; Refeyn OneMP; both purified
[2] = molecular target: Full-length human BMAL1 with an N-terminal Strep tag (human) (UniProt O00327); test: co-elution in heparin chromatography; both proteins co-expressed in insect cells; Strep-Tactin eluate diluted to 100 mM NaCl, applied to a heparin column, eluted with a linear salt gradient; SDS-PAGE of the fractions; both purified
[3] = molecular target: FLAG-tagged BMAL1 (786O cells) (UniProt O00327); test: co-IP; 786O cells transiently transfected with pTwist FLAG plasmids; RIPA lysate; FLAG tag immunoprecipitated with anti-Flag M2 agarose beads; immunoblot

Full-length human HIF2α with an N-terminal Strep tag (from UniProt Q99814 1-870)
binding [1]: binds | binding [2]: binds

endogenous wildtype HIF2α (786O cells) (from UniProt Q99814 1-870)
binding [3]: binds
